Among all 400,000 compounds or so, about 13,000 (3.2%) were called active. Inconclusive results, whose numbers are uncertain, are shown with a selection of clear calls. Calls follow the shape of the dose curve; as a rule, active = well fitted cell-killing curve with a large enough effect; inconclusive = small, poorly fitted or top-dose-only effect, or effect the other way; inactive = flat fitted curve, though single readings scatter. Potencies of inconclusive entries are doubtful fits and often do not repeat.
assay: qHTS assay for MDR1-selective chemotherapeutics: Primary screen using the drug-selected MDR subline cells KB-V1; conditions: KB-V1 MDR cells viability, CellTiter-Glo, 72 h; activity change, negative = cytotoxicity: at 46.1 µM (top of the series); also: nearly all actives have a fitted effect of over 60% in size
Method in brief: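 Cytotoxicity toward P-gp-expressing KB-V1 cells was determined as loss of CellTiter-Glo luminescence after 72 h at 37 degrees C. Compounds were tested in quantitative HTS format across a concentration range, with curves fitted to normalized data.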
% is scaled to controls: 0 for no effect and ±100 for the full control effect; potency is read from the fitted curve at half-maximal effect.

| SMILES | Potency | activity change, negative = cytotoxicity |
| --- | --- | --- |
| Cc1cc(-c2nc3ccccc3c(=O)o2)ccc1[N+](=O)[O-] | inconclusive: 14.6 µM [rising, single point] | – |
| C(=N\Nc1ncnc2nc[nH]c12)/c1cccs1 | inactive | – |
| Cc1nn(CC(=O)OCC(=O)c2ccc(OC(F)F)cc2)c(C)c1[N+](=O)[O-] | inconclusive: 29.1 µM [rising, single point] | – |
| CCc1ccccc1N(C)C(=O)Cn1cnc2sc(C)c(S(=O)(=O)N3CCN(c4ncccn4)CC3)c2c1=O | inconclusive: 25.9 µM [cytotoxic, single point] | – |
| N#Cc1nc(-c2ccc(OCc3ccc(Cl)cc3)cc2)oc1N1CCCC1 | inconclusive: 25.9 µM [rising, single point] | – |
| CC(=O)OCCCCCCCCCCC[N+]1(C)CCCCC1 | inconclusive: 8.2 µM [rising, partial curve] | – |
| Cc1nc(Nc2nc3c(c(=O)[nH]2)CCC3)nc2ccccc12 | inconclusive: 2.59 µM [cytotoxic, full curve] | – |
| O=C(CSc1nc2ncc(Cl)cc2[nH]1)Nc1ccccc1-c1ccccc1 | inactive | – |
| COc1ccc(N2CCN(c3ncnc4sc(C(=O)NCC5CCCO5)c(C)c34)CC2)cc1 (stereo not drawn) | inconclusive: 9.2 µM [cytotoxic, partial curve, poor fit] | – |
| CC(C)NCC(O)Cn1c2c(c3ccccc31)CCc1c-2cnn1-c1ccccc1 (stereo not drawn) | active: 20.6 µM | – |
| O=C1C(=O)C(c2cc(O)c(O)c(O)c2)Oc2cc(O)cc(O)c21 (stereo not drawn) | inactive | – |
| CCOC(=O)c1ccccc1NC(=O)COC(=O)CSC(C)C(=O)Nc1cc(C)on1 (stereo not drawn) | inactive | – |
| COC(=O)c1ccc(Cn2nnc3sc4c(c3c2=O)CCC(C)C4)cc1 (stereo not drawn) | inactive | – |
| CCOc1ccccc1CN1CCC(n2nccc2NC(=O)CCc2ccccc2)CC1 | – | inconclusive: -28.5% |
| CSc1cccc(NC(=S)N(CCN(C)C)C(C)c2ccncc2)c1 (stereo not drawn) | inconclusive: 7.31 µM [cytotoxic, partial curve] | – |
| CCOc1ccc(Nc2nc(N)c3ccccc3n2)cc1 | inconclusive: 23.1 µM [cytotoxic, single point] | – |
| COc1ccc(OC)c(C(C(=O)NCc2ccco2)N(C(=O)Cn2nnc3ccccc32)C(C)C)c1 (stereo not drawn) | inconclusive: 8.2 µM [cytotoxic, partial curve, poor fit] | – |
| CCOc1ccc(NC(=O)Nc2cc(C)on2)cc1 | inconclusive: 29.1 µM [cytotoxic, partial curve, poor fit] | – |
| CCOC(=O)CNc1cccc(C(F)(F)F)c1 | inconclusive: 29.1 µM [rising, single point] | – |
| O=C(COC(=O)/C=C/c1ccc(F)cc1)NCC1CCCO1 (stereo not drawn) | – | inconclusive: -38.9% |
| COc1ccc(CN2CCc3ccccc3C2)c(OC)c1OC | inactive | – |
| O=C1OCCN1C(=O)[C@H]1[C@H](c2ccc(F)cc2)C(c2ccc(F)cc2)=NN1c1ccc(Br)cc1 | inconclusive: 14.6 µM [cytotoxic, single point] | – |
| CC(=O)c1cccc(NC(=O)c2cccc3c(-c4cccnc4)coc23)c1 | inconclusive: 23.1 µM [cytotoxic, single point] | – |

Of the compounds above, 3 have an NH in an aromatic ring:

| SMILES | Potency | activity change, negative = cytotoxicity |
| --- | --- | --- |
| C(=N\Nc1ncnc2nc[nH]c12)/c1cccs1 | inactive | – |
| Cc1nc(Nc2nc3c(c(=O)[nH]2)CCC3)nc2ccccc12 | inconclusive: 2.59 µM [cytotoxic, full curve] | – |
| O=C(CSc1nc2ncc(Cl)cc2[nH]1)Nc1ccccc1-c1ccccc1 | inactive | – |

Later entries:

| SMILES | Potency | activity change, negative = cytotoxicity |
| --- | --- | --- |
| Nc1ncnc2c(C3OC(CO)C(O)C3O)c[nH]c12 (stereo not drawn) | active: 0.291 µM | – |
| CCOc1cc(/C=N/N=C2/NC(=O)C(CC(=O)O)S2)ccc1OCc1ccc(Cl)cc1Cl (stereo not drawn) | inconclusive: 20.6 µM [rising, single point] | – |
| COc1ccc(S(=O)(=O)N2CCCCCC2)cc1C(=O)N(C)Cc1cccs1 | inconclusive: 6.51 µM [cytotoxic, partial curve] | – |
| O=C(N/N=C/c1ccc([N+](=O)[O-])o1)c1ccncc1 | inactive | – |
| O=C(O/N=C\c1ccc(N2CCOCC2)c([N+](=O)[O-])c1)c1ccc(F)cc1 | – | inconclusive: -36.9% |
| COc1ccc(CCN2C(=O)CC(Cc3cccc(C)c3)C2=O)cc1OC (stereo not drawn) | inconclusive: 23.1 µM [cytotoxic, single point] | – |
| CC(C)(C)n1nnnc1C(c1ccccc1F)N1CCN(C(=O)c2ccco2)CC1 (stereo not drawn) | inconclusive: 20.6 µM [cytotoxic, single point] | – |
| CC(=O)N(Cc1cccnc1)c1nc2c(C)c(C)ccc2s1 | inactive | – |
| C/C=C\C=C\C(=O)N1CC2(CC(c3cccc(NC(=O)CC(c4ccccc4)c4ccccc4)c3)=NO2)C[C@H]1C(N)=O (stereo partly drawn) | inconclusive: 29.1 µM [rising, partial curve, poor fit] | – |
| O=C(Cn1nc(-c2ccccc2)c2ccccc2c1=O)Nc1cccc(O)c1 | inconclusive: 18.4 µM [cytotoxic, partial curve, poor fit] | – |
| COc1cc2[nH]c(=O)n(CCCCCC(=O)N3CCN(c4cccc(C(F)(F)F)c4)CC3)c(=O)c2cc1OC | inconclusive: 29.1 µM [cytotoxic, single point] | – |
| O=C(CNC(=O)c1ccc(F)cc1)NCc1ccccn1 | inconclusive: 29.1 µM [rising, single point] | – |
| Cc1[nH]n(-c2ccccc2)c(=O)c1C(c1ccc(C(=O)O)cc1)c1c(C)[nH]n(-c2ccccc2)c1=O | inactive | – |
| CC(C)c1ccc(NC(=O)CN(C)S(=O)(=O)c2ccc3c(c2)c(=O)n(C)c(=O)n3C)cc1 | inactive | – |
| C=CCn1c(SCC(=O)Nc2nccs2)nnc1-c1cc2cccc(OC)c2o1 | active: 2.06 µM | – |
| COc1ccc([N+](=O)[O-])cc1CN1CCN(c2ncc(Cc3ccccc3)cn2)CC1 | active: 7.31 µM | – |
| CCC(=O)NCCc1nc2cc(NC(=O)c3cccs3)ccc2n1C | inactive | – |
| Cc1ccc(NC(=O)Nc2ccon2)cc1Cl | inconclusive: 18.4 µM [rising, single point] | – |
| COc1cccc(Oc2ccc(S(=O)(=O)N3CCCC3)cc2[N+](=O)[O-])c1 | inactive | – |
| Cc1ccc(/C(N)=N/OC(=O)C23CC4CC(CC(C4)C2)C3)cc1 | inconclusive: 29.1 µM [cytotoxic, single point] | – |
| COc1ccc(CNC(=O)COC(=O)CCN2C(=O)C3CC=CCC3C2=O)cc1OC (stereo not drawn) | inconclusive: 29.1 µM [rising, single point] | – |
| O=S(=O)(c1ccc(NCCOc2ccccc2)nc1)N1CCCC1 | active: 20.6 µM | – |
| Cc1cc(F)ccc1S(=O)(=O)N1CCCOC1CNC(=O)C(=O)NCc1cccnc1 (stereo not drawn) | inactive | – |

Structures shown so far that have a COOH group (two):

| SMILES | Potency | activity change, negative = cytotoxicity |
| --- | --- | --- |
| CCOc1cc(/C=N/N=C2/NC(=O)C(CC(=O)O)S2)ccc1OCc1ccc(Cl)cc1Cl (stereo not drawn) | inconclusive: 20.6 µM [rising, single point] | – |
| Cc1[nH]n(-c2ccccc2)c(=O)c1C(c1ccc(C(=O)O)cc1)c1c(C)[nH]n(-c2ccccc2)c1=O | inactive | – |

(continued)

| SMILES | Potency | activity change, negative = cytotoxicity |
| --- | --- | --- |
| O=C(NCCc1ccc(Cl)cc1)C1CCC(=O)N1Cc1ccccc1Cl (stereo not drawn) | active: 23.1 µM | – |
| c1cnn(-c2cncc(-n3cccn3)n2)c1 | inconclusive: 18.4 µM [rising, single point] | – |
| CCOC(=O)Cc1ccc(NC(=O)NCc2ccc3c(c2)CCN3C(=O)CC)cc1 | inactive | – |
| O=C(CSc1nn(-c2ccccc2)c(=S)s1)NC(=O)NCc1ccco1 | inconclusive: 16.4 µM [cytotoxic, single point] | – |
| CCN(CC)c1c([N+](=O)[O-])c(=O)n(CC)c2ccccc12 | inactive | – |
| Cc1nc2ccc(C(=O)Nc3cccc(OCC(=O)N(C)C)c3)cn2c1N(C)CC1CCCCC1 | inconclusive: 29.1 µM [cytotoxic, single point] | – |
| COc1cc(OC)nc(C(NC(=O)C2CCN(Cc3c[nH]c4ccccc34)CC2)c2ccc(Cl)cc2)n1 (stereo not drawn) | inconclusive: 23.1 µM [cytotoxic, partial curve, poor fit] | – |
| CC1(C)CC(=O)C2=C(C1)NC(=O)CC2c1cccc(F)c1 (stereo not drawn) | inconclusive: 29.1 µM [rising, single point] | – |
| O=C(C1CCCN(S(=O)(=O)Cc2ccccc2)C1)N1CCCCC1 (stereo not drawn) | inconclusive: 13 µM [cytotoxic, partial curve] | – |
| CCc1ccc(OCC(=O)N(Cc2ccc(Cl)cc2)C2CCS(=O)(=O)C2)cc1 (stereo not drawn) | inactive | – |
| Cc1cc(F)ccc1S(=O)(=O)N1CCCOC1CNC(=O)C(=O)NCc1ccc2c(c1)OCO2 (stereo not drawn) | inconclusive: 7.31 µM [cytotoxic, partial curve, poor fit] | – |
| COC(=O)C1CCN(CC(=O)Nc2ccc(C(=O)Nc3ccccc3OC)cc2)CC1 | inconclusive: 16.4 µM [cytotoxic, partial curve] | – |
| CCNC(=O)CCc1nc(-c2ccc(C)cc2)no1 | inactive | – |
| CS(=O)(=O)N(CCc1ccccc1)CC(=O)N1CCN(c2ccccc2)CC1 | inconclusive: 14.6 µM [cytotoxic, partial curve, poor fit] | – |
| OC[C@@H]1CN(Cc2ccccc2)C[C@H](n2cnc3c(N4CCN(c5ccccc5)CC4)ncnc32)O1 | inconclusive: 2.59 µM [cytotoxic, full curve] | – |
| Cc1cccc(OCC(O)CN2CCN(S(=O)(=O)c3ccc(C)cc3C)CC2)c1 (stereo not drawn) | inconclusive: 29.1 µM [cytotoxic, single point] | – |
| COc1cc([N+](=O)[O-])ccc1NC(=O)CN1CCN(C(=O)c2ccco2)CC1 | inconclusive: 20.6 µM [cytotoxic, single point] | – |
| CCOC(=O)c1c(CN2CCC(C)CC2)oc2ccc(OC)cc12 | inconclusive: 7.31 µM [cytotoxic, partial curve] | – |
| CCC(C)/C(C)=N/NC(=O)c1ccc(COc2ccc(Cl)c(C)c2)cc1 (stereo not drawn) | inconclusive: 20.6 µM [cytotoxic, single point] | – |
| C[C@@H]1CN([C@H](C)CO)C(=O)CCCn2cc(nn2)CO[C@H]1CN(C)C(=O)c1cc(-c2ccccc2)on1 | inconclusive: 18.4 µM [rising, single point] | – |
| CCOC(=O)C1CCN(C(=O)c2cccc(S(=O)(=O)N3CCCc4ccccc43)c2)CC1 | – | inconclusive: -13.5% |
| Cc1ccc(/C=C2\CC(C)CC3=C2NC(=S)NC3c2ccc(C)cc2)cc1 (stereo not drawn) | inactive | – |
